In patent publication US20070243579A1:
Results are given in words; binding and its absence hold for the method and conditions named. In cells and extracts the contact can be indirect. Some results given as binding are weak or reduced against the parent protein; the word gives no strength. Tags and fused reporters may be left off the sequences shown.

How the values were obtained:
[1] = biological target: T1, untagged Dbf2, wild type (S. cerevisiae) (UniProt P22204); test: co-expression in mob1-deleted yeast, co-purification on glutathione sepharose
T1 sequence (looked up): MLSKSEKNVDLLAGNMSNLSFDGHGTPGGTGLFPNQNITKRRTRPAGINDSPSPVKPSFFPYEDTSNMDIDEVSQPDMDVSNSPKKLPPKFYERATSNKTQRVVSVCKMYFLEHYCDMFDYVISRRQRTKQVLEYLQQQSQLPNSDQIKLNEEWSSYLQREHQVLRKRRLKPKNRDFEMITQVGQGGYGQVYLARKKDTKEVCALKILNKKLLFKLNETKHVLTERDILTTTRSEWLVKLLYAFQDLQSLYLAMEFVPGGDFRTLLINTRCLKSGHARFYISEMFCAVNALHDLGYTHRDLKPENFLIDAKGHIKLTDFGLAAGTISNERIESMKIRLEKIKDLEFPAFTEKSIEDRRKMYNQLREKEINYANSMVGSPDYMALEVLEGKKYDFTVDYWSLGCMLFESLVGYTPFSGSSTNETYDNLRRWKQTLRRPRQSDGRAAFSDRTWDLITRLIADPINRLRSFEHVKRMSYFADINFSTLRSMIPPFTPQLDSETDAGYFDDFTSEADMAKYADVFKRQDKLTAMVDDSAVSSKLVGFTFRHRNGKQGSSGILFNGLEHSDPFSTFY

[2] = biological target: T2, Dbf2 N305A kinase dead (S. cerevisiae) (UniProt P22204); test: co-expression in yeast, co-purification on glutathione sepharose
T2 sequence (looked up): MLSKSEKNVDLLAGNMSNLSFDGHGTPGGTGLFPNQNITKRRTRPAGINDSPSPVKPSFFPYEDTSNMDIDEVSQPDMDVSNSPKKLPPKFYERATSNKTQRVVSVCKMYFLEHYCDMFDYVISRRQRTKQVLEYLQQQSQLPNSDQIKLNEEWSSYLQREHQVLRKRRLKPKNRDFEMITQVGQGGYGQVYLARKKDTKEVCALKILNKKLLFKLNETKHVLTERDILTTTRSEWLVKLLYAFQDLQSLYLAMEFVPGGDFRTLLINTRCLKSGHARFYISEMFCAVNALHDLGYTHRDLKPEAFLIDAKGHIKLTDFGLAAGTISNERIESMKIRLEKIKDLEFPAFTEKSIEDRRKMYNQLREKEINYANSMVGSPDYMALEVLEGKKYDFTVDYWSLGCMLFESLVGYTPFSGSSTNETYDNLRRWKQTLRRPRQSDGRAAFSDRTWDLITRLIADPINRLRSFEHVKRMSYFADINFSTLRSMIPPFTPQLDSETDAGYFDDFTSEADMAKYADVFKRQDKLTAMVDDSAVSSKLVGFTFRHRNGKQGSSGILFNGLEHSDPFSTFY

[3] = biological target: T1, untagged Dbf2, wild type (S. cerevisiae); test: as above

Measured: binding

B1: GST-Mob1 (protein, S. cerevisiae, UniProt P40484 1-314, looked up, not shown: a dimerising Fc or GST)
chain: MSFLQNFHISPGQTIRSTRGFKWNTANAANNAGSVSPTKATPHNNTINGNNNNANTINNRADFTNNPVNGYNESDHGRMSPVLTTPKRHAPPPEQLQNVTDFNYTPSHQKPFLQPQAGTTVTTHQDIKQIVEMTLGSEGVLNQAVKLPRGEDENEWLAVHCVDFYNQINMLYGSITEFCSPQTCPRMIATNEYEYLWAFQKGQPPVSVSAPKYVECLMRWCQDQFDDESLFPSKVTGTFPEGFIQRVIQPILRRLFRVYAHIYCHHFNEILELNLQTVLNTSFRHFCLFAQEFELLRPADFGPLLELVMELRDR
binds: all assays above
